According to PubChem BioAssay AID328 (DTP/NCI, 2004):
The list does not hold the whole screen: it gathers tests that were run many times, whatever their T/C, doses with no T/C, and many T/C values between a quarter and a half above the control. Other doses and runs of a compound stand elsewhere. T/C gives the treated animals as a percentage of the vehicle group. Some doses have a count of surviving animals in place of a T/C: the source holds a T/C of zero for them, seemingly a mark for toxic or unscored doses. Some survivor counts are full or nearly so, which does not show that the dose was tolerated: the source hardly ever lists a survival T/C far under the control, and the zero likely stands for such cases as well. Survivors were counted at the toxicity check, usually on the fifth day, unless a day is given; later deaths do not show. Schedule codes are those of the source, read here as Q, the interval in days (D) or hours (H), X, the number of doses. For survival time, this PubChem deposit counts one and a half times the control or more as active, and values a quarter to a half above the control carry no call in these data; other NCI protocols may use other cut-offs. Some T/C values are followed by the survivors on the day toxicity was checked, most often the fifth; without a count, all were alive then. Some entries were tested several times; the results are listed from low to high.

Test system: BDF1 mice, P388 leukemia ip, median survival T/C
Test: NCI In Vivo Anticancer Drug Screen. Data for tumor model P388 Leukemia (intraperitoneal) in B6D2F1 (BDF1) mice
Conditions: higher T/C = longer survival
How it was run: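 Compound-treated tumour-bearing mice were compared with vehicle-treated controls. Survival was recorded, and the value is the treated-group measurement divided by the control-group measurement (T/C).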

[1] = T/C endpoint: median survival time, dose: 50.0 mg/kg/injection, schedule: Q01DX009 (ip), vehicle: saline with Tween-80
[2] = T/C endpoint: median survival time, dose: 100.0 mg/kg/injection, schedule: Q01DX009 (ip), vehicle: saline with Tween-80
[3] = T/C endpoint: median survival time, dose: 200.0 mg/kg/injection, schedule: Q01DX009 (ip), vehicle: saline with Tween-80

In the case of COC(=O)C12OCC34C(CC5=C(C)C(=O)C(O)=CC5(C)C3C(O)C1O)OC(=O)C(OC(=O)c1ccccc1)C24 (stereo unspecified), the T/C (T/C endpoint: median survival time, dose: 0.4 mg/kg/injection, schedule: Q01DX009 (ip), vehicle: saline + alcohol) is reported as 133 % of control.
With CC1(C)N=C(N)N=C(N)N1c1ccc(OCCCOc2ccc(S(=O)(=O)F)cc2)c(Cl)c1 the T/C (T/C endpoint: median survival time, dose: 1.5 mg/kg/injection, schedule: Q01DX009 (ip), vehicle: saline) was 136 % of control, the T/C (T/C endpoint: median survival time, dose: 2.3 mg/kg/injection, schedule: Q01DX009 (ip), vehicle: saline) was 136 % of control and the T/C (T/C endpoint: median survival time, dose: 3.6 mg/kg/injection, schedule: Q01DX009 (ip), vehicle: saline) was 135 % of control. The T/C (T/C endpoint: median survival time, dose: 5.4 mg/kg/injection, schedule: Q01DX009 (ip), vehicle: saline) was 140 % of control, the T/C (T/C endpoint: median survival time, dose: 6.25 mg/kg/injection, schedule: Q01DX009 (ip), vehicle: saline) was 131 % of control and the T/C (T/C endpoint: median survival time, dose: 8.25 mg/kg/injection, schedule: Q01DX009 (ip), vehicle: saline) was 133 % of control. The T/C (T/C endpoint: median survival time, dose: 12.5 mg/kg/injection, schedule: Q01DX009 (ip), vehicle: saline) was 125 and 136 % of control [5 of 6 alive], the survivor count (T/C endpoint: median survival time, dose: 50.0 mg/kg/injection, schedule: Q01DX009 (ip), vehicle: saline) was 4 of 6 and the survivor count (T/C endpoint: median survival time, dose: 75.0 mg/kg/injection, schedule: Q04DX003 (ip), vehicle: saline) was 3 of 6.
With O=C(O)c1ccc(C(Cl)(Cl)Cl)cc1 the T/C (T/C endpoint: median survival time, dose: 37.5 mg/kg/injection, schedule: Q01DX009 (ip), vehicle: Klucel (hydroxypropylcellulose) (HPC)) was 126 % of control, the T/C (T/C endpoint: median survival time, dose: 75.0 mg/kg/injection, schedule: Q01DX009 (ip), vehicle: Klucel (hydroxypropylcellulose) (HPC)) was 134 % of control and the T/C (T/C endpoint: median survival time, dose: 75.0 mg/kg/injection, schedule: Q01DX009 (ip), vehicle: saline with Tween-80) was 142 % of control. For the same molecule, the T/C (T/C endpoint: median survival time, dose: 112.5 mg/kg/injection, schedule: Q01DX009 (ip), vehicle: saline with Tween-80) was 125 % of control, the T/C (T/C endpoint: median survival time, dose: 150.0 mg/kg/injection, schedule: Q01DX009 (ip), vehicle: Klucel (hydroxypropylcellulose) (HPC)) was 135 % of control and the survivor count (T/C endpoint: median survival time, dose: 300.0 mg/kg/injection, schedule: Q01DX009 (ip), vehicle: saline with Tween-80) was 3 of 6.
[O-][n+]1c(CCl)nc2cccc3c2c1-c1ccccc1-3 was tested, and the T/C [1] was 131 [6 of 8 alive] and 147 % of control, the T/C [2] was 133 % of control and the survivor count [3] was 1 of 6.
Cc1ccc(C2(C#N)CCCC2)cc1 was tested, and the survivor count (T/C endpoint: median survival time, dose: 400.0 mg/kg/injection, schedule: Q01DX009 (ip), vehicle: saline with Tween-80) was 5 of 6.
For c1ccc(CNCCN(Cc2ccccc2)Cc2ccccc2)cc1, the T/C (T/C endpoint: median survival time, dose: 25.0 mg/kg/injection, schedule: Q01DX009 (ip), vehicle: water) was 133 % of control [5 of 6 alive] and the survivor count (T/C endpoint: median survival time, dose: 50.0 mg/kg/injection, schedule: Q01DX009 (ip), vehicle: water) was 3 of 6.
With O=c1c2ccccc2nc(-c2ccccc2)n1-c1cc(C(F)(F)F)cc(C(F)(F)F)c1 the survivor count [1] was 6 of 6, the survivor count [2] was 6 of 6 and the survivor count [3] was 6 of 6.
In the case of CCOC(CN(Cc1ccc(OCc2ccccc2)c(OC)c1)S(=O)(=O)c1ccc(C)cc1)OCC, the survivor count (T/C endpoint: mean survival time, dose: 400.0 mg/kg/injection, schedule: Q01DX009 (ip), vehicle: water) is reported as 5 of 6.
With CCNC(=NC)c1ccc(NC(=O)c2ccc(C(=O)Nc3ccc(C(=NC)NCC)cc3)cc2)cc1 the T/C (T/C endpoint: median survival time, dose: 2.7 mg/kg/injection, schedule: Q01DX009 (ip), vehicle: saline with Tween-80) was 140 % of control.
For Clc1ccc2nncn2n1, the survivor count (T/C endpoint: median survival time, dose: 25.0 mg/kg/injection, schedule: Q01DX009 (ip), vehicle: saline with Tween-80) was 7 of 7, the survivor count [1] was 7 of 7 and the survivor count [2] was 7 of 7.
With CC(C)(C)c1cccc(C(C)(C)C)c1 the survivor count (T/C endpoint: median survival time, dose: 400.0 mg/kg/injection, schedule: Q01DX001 (ip), vehicle: saline with Tween-80) was 4 of 6.
